Publication PMC10163288
The other results are listed elsewhere or left out.

B1: il10ra_site1_sap_18_mot_HHH_b2_05343_000000235_0001_19_35_H_._HHH_b2_01840_0001_0000100007_0000001_0_0001 (protein)
chain: SSSSSSDLEEIFEEAERLAEERNNPAAAFLIRQAYKAIRLSGDPHARRNLEAFLRLLGSSSSSSS
B2: il10ra_site1_normal_mot_HHH_b2_03438_af2_000000049_0001_18_34_H_._HHH_b2_07194_0001_0000100001_0000001_0 (protein)
chain: SSSSSDEELEEEVERLLEEAERVDLEEAYELLREAAKLAHELNDEELSQLIQKVLRRILESSSSS
B3: il10ra_site1_normal_mot_HHH_b1_01731_af2_000000210_0001_41_56_H_._HHH_b1_07175_0001_0000300014_0000001_0_af2pred_0001 (protein)
chain: SSSSDKEELQFVLRVIRKLAKEFNLSDEQLRELAELALELLKQGVSPEEIEELLEKLAEELSSSS
B4: il10ra_site1_sap_21_mot_HHH_b1_03763_000000278_0001_22_38_H_._HHH_b1_05915_0001_0000800032_0000001_0_0001_af2pred_dldesign_0_af2pred (protein)
chain: SAEEEVENIIRYTAEAAGIPRVEVRVEDGRVTVTCEGSAEAHERVRLAAEAAGERIGWETVVTAR
B5: il10ra_site1_sap_27_mot_HHH_b1_03094_000000294_0001_1_20_H_._HHH_b1_03221_af2_0001_0000100004_0000001_0_0001_af2pred_dldesign_0_af2pred (protein)
chain: SSSSSEEEAERLKAELRAAIAAGDVEAAVALLRELTRLAWELGNSEVIQEIKELAKEILAVSSSS
B6: il10ra_site1_normal_mot_HHH_b2_00984_000000042_0001_1_20_H_._HHH_b1_04863_af2_0001_0000500015_0000001_0 (protein)
chain: SSSSSDEEEELEELLEQLKKALEENDRELVAQLARRLVQLAFRLSDPEALQEAWELIRLLSSSSS
B7: il10ra_site1_sap_16_mot_HHH_b2_00612_000000251_0001_1_14_H_._HHH_b2_07853_0001_0000200011_0000001_0_0001 (protein)
chain: SSSSSQEEVHLRALLFFAREALRAGDPHAARLMLEKAEELAEELGTPLVELVRELLEELNSSSSS
B8: il10ra_site1_sap_16_mot_HHH_b1_05357_000000034_0001_23_39_H_._HHH_b2_03504_0001_0000300018_0000001_0_0001 (protein)
chain: SSSSDEEEEELRELLERVEELLERGDPRRAARVAQELLRLIYQLSDEEALQKLWRLMKKYGSSSS
B9: il10ra_site1_normal_mot_HHH_b2_00612_000000251_0001_1_14_H_._HHH_b1_02085_0002_0000300016_0000002_0_af2pred_0001 (protein)
chain: SSSSDNAEFARKLAEEIQRLLEEGNEEEAEELLEEAKRILEELGDELTVRAIEYFFKAAKGSSSS
B10: il10ra_site1_sap_17_mot_HHH_b2_02537_000000065_0001_1_20_H_._HHH_b1_01889_0001_0000300022_0000002_0_0001 (protein)
chain: SEQLAELQLRSMGDPEMLKDAVRNIAELAQEGDPVARRAFEALEEVLRKLGDPELLEILEEVHER
B11: il10ra_site1_normal_mot_HHH_b1_00682_000000211_0001_1_20_H_._HHH_b2_01840_0001_0000300033_0000002_0_af2pred_dldesign_0_af2pred (protein)
chain: SSSSDVRAEIRRLLEEAKKLKEAGKPDEAYKLLKKAVELAGEVEDPELQQLVRDEARKLISSSSS
B12: il10ra_site1_normal_mot_e1dd4851c59bc1cdde016f988f6856bd_0001_1_000000200_0001_16_31_H_._HEEHE_2766_af2_0001_0000400024_0000001_0 (protein)
chain: DEAERVALAVERAARLAGVPSVTVEVHNGEVHVELEGTDQSVREAEIMAEFQARAANVKITIETK
B13: il10ra_site1_sap_15_mot_HHH_b2_03328_af2_000000127_0001_1_19_H_._HHH_b1_07969_0001_0000500014_0000001_0_0001 (protein)
chain: SSSSSLYEKVKKAIEELIELLRNGNPEEARELAEEMLREVEEAGNWAAWFSLRLLLEQINSSSSS
B14: il10ra_site1_sap_15_mot_HHH_b2_00230_000000227_0001_1_19_H_._HHH_b1_00399_0001_0000100015_0000001_0_0001_af2pred_0001 (protein)
chain: SSSSSSEEVERAARQLFRAIREISDEEKVKLALKDMRASAEFTNDPEIHELVRELEELFSSSSSS
B15: il10ra_site1_normal_mot_HHH_b2_08186_000000021_0001_43_56_H_._HHH_b1_08356_0001_0000100003_0000001_0 (protein)
chain: SSSSSEEEERIEELIEEIERLIEEGNPEEALELLLEALRLAFRANNPELLQELWELLQRLASSSS
B16: il10ra_site1_sap_24_mot_3af0db62db2b275566dae2e03bf881fa_0001_000000003_0001_37_50_H_._HHH_b1_08478_af2_0001_0000200007_0000002_0_0001 (protein)
chain: SSSSSSDVEEEVEELLEEAKQIDDDRELTRLLAEAVRLAFRANDPELLREVWRVIKELSSSSSSS
B17: il10ra_site1_sap_18_mot_HHH_b1_03763_000000209_0001_22_38_H_._HHH_b1_03243_0001_0000100003_0000002_0_0001_af2pred_0001 (protein)
chain: SSSSDDEKKVRLALRFAKRLEEDGDPEAARFILEAALEIAKRGGNPELEEEVQEILERLRSSSSS
B18: il10ra_site1_sap_17_mot_HHH_b1_04905_af2_000000228_0001_1_17_H_._d19391ccd5e4f9f9722e25c964c800ff_0001_af2_0001_0000500019_0000001_0_0001 (protein)
chain: SSSSSDEEEAEERVRELLEEAEHIEDREEVAELFKEALRIAIQVNDPELLQEVWEAFKRLSSSSS
B19: il10ra_site1_normal_mot_8756ee2cf497b5429c717dfc0c0bcfd6_0001_000000186_0001_1_13_H_._HHH_b1_05396_af2_0001_0000500018_0000002_0 (protein)
chain: SSSSDEHERAFELLREVAELHFEGDEEELEELLEEAEKIAQEANNDVILVQLEYLKRLLESSSSS
B20: il10ra_site1_sap_14_mot_HHH_b1_04592_af2_000000261_0001_39_52_H_._HHH_b2_04904_0001_0000200005_0000001_0_0001 (protein)
chain: SSSSDLEEKVEQTLRFVKWLIEVGDEKAAERFLRVAERLAKEAGDPELEERVEELERELKSSSSS
B21: il10ra_site1_sap_16_mot_HHH_b2_08144_af2_000000046_0001_38_52_H_._HHH_b2_08331_0001_0000200020_0000002_0_0001 (protein)
chain: SSSSNAAEYLVRQALRAARLAKENNDPELVKRALEIAERIAENANDPELKELVEEVEEELESSSS
B22: il10ra_site1_sap_25_mot_HHH_b1_03763_000000209_0001_22_38_H_._HHH_b2_07522_0001_0000500082_0000001_0_0001 (protein)
chain: SSSSSEREEVWELLKEALELRAEGNPEEAEKVLERAREIAEELGSQLFEIIIKMLQEAIEQSSSS
B23: il10ra_site1_sap_21_mot_HHH_b2_00984_000000042_0001_1_20_H_._HHH_b2_04376_0001_0000300040_0000001_0_0001 (protein)
chain: SSSSSDFEEVYELSREAVELDSDGNPEEARKVLEEAQEIAEELGDQLMRRQLEHLEKVVNSSSSS
B24: il10ra_site1_sap_29_mot_HHH_b2_02354_af2_000000157_0001_40_56_H_._ems_3hM_2942_af2_0001_0000100002_0000002_1_0001_af2pred_0001 (protein)
chain: SSSSTAEEDVRLAIAAAELALKAGDPEKARRALEIAKLIARQGNNPELEEELEELEEEINSSSSS

Each binder was assayed against il10ra, Q13651 (assay: yeast display titration).

Binder | apparent Kd
B1 | inactive: no binding seen
B2 | inactive: no binding seen
B3 | inactive: no binding seen
B4 | inactive: no binding seen
B5 | inactive: no binding seen
B6 | inactive: no binding seen
B7 | inactive: no binding seen
B8 | inactive: no binding seen
B9 | inactive: no binding seen
B10 | inactive: no binding seen
B11 | inactive: no binding seen
B12 | inactive: no binding seen
B13 | inactive: no binding seen
B14 | inactive: no binding seen
B15 | inactive: no binding seen
B16 | inactive: no binding seen
B17 | inactive: no binding seen
B18 | inactive: no binding seen
B19 | inactive: no binding seen
B20 | inactive: no binding seen
B21 | inactive: no binding seen
B22 | inactive: no binding seen
B23 | inactive: no binding seen
B24 | inactive: > 1.5 µM

Some of the entries above, set out differently:
B4
  apparent Kd: inactive: no binding seen
B5
  apparent Kd: inactive: no binding seen
